Source: article PMC5406906
These are yes or no findings as the source states them, for the method shown. Binding seen in cells or lysates may run through a third protein. Some entries that bind do so weakly or less than the wild type.

Chains of the proteins cited; added tags and fusions are not shown. Residues count along the entry.
UniProt Q16620, residues 32-822: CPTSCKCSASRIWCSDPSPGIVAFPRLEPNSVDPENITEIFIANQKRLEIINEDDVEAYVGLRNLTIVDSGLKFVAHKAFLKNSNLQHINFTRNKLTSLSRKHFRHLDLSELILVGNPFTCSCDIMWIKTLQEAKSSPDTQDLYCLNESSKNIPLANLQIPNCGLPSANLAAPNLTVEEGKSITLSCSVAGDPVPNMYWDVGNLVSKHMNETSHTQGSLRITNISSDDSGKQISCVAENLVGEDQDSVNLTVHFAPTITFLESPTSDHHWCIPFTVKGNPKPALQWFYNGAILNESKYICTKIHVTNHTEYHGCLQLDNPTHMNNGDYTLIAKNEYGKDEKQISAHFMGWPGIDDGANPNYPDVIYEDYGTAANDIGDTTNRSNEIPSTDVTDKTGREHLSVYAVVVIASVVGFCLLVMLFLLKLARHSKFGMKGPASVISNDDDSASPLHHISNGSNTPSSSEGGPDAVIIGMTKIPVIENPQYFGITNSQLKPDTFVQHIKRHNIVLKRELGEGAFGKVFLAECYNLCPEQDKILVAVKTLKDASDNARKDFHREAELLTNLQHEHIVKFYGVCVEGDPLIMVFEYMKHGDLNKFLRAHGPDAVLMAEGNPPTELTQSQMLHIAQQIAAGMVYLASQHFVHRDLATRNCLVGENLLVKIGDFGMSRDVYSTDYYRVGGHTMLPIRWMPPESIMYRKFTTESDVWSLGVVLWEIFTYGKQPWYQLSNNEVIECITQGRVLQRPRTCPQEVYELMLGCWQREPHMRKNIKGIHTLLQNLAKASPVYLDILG

Molecular target: Human epidermal growth factor receptor 2 (Her2) (human (endogenous in BBM1)) (UniProt P04626)
Experiment: co-IP; BBM1 cell lysate (750 ug protein) incubated overnight at 4 °C with Protein G agarose beads pre-conjugated with primary antibody (4 ug; Her2 or TrkB immunoprecipitation); IgG beads as control; washed five times with high salt, low salt, LiCl and TE buffers; western blot; cells also grown with lapatinib (50 uM) and/or cyclotraxin B (20 uM), which decreased the interaction

Q: Which binding does the source give for “Tropomyosin-related kinase B (TrkB) (from UniProt Q16620 32-822) (receptor)” here?
A: Its binding is “binds”.
